Some of the results follow.
Experiments:
Test in all cases: log2 fold change, soluble protein after heating vs DMSO (PISA); higher = thermal stabilisation; K562 cells, 10 uM, 30 min; active = over 0.2 and 3.5 SD of the protein, either way, in both replicates (recomputed)
[1] = compound: CC1=C(C=C(C=C1)NC(=O)C2=CC(=CC=C2)C(C)(C)C#N)NC3=CC4=C(C=C3)N=CN(C4=O)C
How it was run: (§1)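 K562 cells at 2×10^6 cells/mL were given 10 μM compound for 30 min. Aliquots then went through 3 min of heating across 48°C-58°C, were pooled, and were extracted in PBS with 0.5% NP-40 at 4°C, and the supernatant after 21,000xg for 90 min was quantified by TMTpro 16plex LC-MS/MS with channel sums equalised. Thermal stability relative to control samples, from duplicates, is given as log2 fold change.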

Chains of the proteins cited; added tags and fusions are not shown. Lines headed by an entry give the natural chain unless they say otherwise; changes in a name come on top.
UniProt Q86YP4: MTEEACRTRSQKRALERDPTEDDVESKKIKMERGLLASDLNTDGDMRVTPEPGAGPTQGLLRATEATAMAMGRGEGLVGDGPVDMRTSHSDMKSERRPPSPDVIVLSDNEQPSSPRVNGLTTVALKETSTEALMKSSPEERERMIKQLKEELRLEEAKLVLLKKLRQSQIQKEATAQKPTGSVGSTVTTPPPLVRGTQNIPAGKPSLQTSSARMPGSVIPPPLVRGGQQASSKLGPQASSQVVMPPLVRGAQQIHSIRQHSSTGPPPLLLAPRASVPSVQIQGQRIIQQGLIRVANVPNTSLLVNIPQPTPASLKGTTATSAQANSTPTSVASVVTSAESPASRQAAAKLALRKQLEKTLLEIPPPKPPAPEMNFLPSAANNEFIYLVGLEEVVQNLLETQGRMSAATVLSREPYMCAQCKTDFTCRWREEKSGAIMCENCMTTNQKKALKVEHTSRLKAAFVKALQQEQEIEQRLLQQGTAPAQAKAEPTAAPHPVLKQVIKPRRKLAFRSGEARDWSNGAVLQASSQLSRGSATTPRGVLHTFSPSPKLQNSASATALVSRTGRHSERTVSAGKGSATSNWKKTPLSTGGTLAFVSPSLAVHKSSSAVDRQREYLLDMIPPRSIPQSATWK
UniProt Q8WXD5: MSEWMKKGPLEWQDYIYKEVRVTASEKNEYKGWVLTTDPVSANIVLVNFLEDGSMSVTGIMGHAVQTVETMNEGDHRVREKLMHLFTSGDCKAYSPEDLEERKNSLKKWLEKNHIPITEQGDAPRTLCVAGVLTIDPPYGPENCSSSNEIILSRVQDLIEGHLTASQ
UniProt Q96C23: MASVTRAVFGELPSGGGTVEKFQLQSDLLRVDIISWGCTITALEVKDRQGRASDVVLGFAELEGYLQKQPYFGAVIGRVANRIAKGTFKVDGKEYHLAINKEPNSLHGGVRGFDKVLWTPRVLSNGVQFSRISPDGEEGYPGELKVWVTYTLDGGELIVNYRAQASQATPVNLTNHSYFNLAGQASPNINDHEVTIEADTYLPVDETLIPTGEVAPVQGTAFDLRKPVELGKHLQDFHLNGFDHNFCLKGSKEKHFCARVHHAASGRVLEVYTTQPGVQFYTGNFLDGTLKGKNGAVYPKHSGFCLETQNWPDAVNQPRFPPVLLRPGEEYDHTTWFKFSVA
UniProt P02794, whole entry, looked up: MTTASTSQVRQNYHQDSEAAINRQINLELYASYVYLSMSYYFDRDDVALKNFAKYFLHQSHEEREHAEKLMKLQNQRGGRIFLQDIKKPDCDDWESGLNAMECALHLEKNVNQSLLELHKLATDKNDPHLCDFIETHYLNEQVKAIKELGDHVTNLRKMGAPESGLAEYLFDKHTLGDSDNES
UniProt Q9UJY5: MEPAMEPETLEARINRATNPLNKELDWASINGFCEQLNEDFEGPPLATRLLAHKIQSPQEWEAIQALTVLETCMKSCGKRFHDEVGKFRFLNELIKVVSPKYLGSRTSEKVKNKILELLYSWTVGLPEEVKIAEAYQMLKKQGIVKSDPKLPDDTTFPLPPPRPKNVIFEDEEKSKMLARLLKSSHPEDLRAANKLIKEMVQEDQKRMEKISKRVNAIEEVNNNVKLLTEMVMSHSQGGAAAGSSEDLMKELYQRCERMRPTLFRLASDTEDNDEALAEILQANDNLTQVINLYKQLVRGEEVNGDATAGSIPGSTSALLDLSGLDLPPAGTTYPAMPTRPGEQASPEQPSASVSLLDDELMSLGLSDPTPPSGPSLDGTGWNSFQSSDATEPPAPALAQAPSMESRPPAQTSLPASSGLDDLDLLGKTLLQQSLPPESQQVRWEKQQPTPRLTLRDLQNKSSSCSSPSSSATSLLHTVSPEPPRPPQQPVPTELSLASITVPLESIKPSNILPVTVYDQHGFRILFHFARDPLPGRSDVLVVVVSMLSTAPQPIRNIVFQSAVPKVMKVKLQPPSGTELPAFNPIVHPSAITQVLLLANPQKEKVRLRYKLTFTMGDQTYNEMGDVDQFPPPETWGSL
UniProt Q6ZNA5: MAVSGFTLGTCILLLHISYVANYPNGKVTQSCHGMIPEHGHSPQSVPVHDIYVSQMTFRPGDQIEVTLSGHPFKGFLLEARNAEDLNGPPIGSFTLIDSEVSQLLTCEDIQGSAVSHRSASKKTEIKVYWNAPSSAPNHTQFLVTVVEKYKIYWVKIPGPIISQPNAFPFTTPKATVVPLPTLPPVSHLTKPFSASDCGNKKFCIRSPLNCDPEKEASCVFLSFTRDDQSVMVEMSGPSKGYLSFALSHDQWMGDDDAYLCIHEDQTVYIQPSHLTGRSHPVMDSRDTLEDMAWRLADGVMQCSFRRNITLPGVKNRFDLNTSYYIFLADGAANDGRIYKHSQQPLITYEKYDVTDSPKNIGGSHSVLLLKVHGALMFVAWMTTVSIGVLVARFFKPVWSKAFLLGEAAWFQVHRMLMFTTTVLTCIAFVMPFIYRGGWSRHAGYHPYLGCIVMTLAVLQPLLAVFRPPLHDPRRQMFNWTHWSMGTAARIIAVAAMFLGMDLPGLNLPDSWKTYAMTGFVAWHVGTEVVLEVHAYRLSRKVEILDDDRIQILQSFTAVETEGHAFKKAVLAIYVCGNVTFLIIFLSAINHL
UniProt Q92616, whole entry, looked up: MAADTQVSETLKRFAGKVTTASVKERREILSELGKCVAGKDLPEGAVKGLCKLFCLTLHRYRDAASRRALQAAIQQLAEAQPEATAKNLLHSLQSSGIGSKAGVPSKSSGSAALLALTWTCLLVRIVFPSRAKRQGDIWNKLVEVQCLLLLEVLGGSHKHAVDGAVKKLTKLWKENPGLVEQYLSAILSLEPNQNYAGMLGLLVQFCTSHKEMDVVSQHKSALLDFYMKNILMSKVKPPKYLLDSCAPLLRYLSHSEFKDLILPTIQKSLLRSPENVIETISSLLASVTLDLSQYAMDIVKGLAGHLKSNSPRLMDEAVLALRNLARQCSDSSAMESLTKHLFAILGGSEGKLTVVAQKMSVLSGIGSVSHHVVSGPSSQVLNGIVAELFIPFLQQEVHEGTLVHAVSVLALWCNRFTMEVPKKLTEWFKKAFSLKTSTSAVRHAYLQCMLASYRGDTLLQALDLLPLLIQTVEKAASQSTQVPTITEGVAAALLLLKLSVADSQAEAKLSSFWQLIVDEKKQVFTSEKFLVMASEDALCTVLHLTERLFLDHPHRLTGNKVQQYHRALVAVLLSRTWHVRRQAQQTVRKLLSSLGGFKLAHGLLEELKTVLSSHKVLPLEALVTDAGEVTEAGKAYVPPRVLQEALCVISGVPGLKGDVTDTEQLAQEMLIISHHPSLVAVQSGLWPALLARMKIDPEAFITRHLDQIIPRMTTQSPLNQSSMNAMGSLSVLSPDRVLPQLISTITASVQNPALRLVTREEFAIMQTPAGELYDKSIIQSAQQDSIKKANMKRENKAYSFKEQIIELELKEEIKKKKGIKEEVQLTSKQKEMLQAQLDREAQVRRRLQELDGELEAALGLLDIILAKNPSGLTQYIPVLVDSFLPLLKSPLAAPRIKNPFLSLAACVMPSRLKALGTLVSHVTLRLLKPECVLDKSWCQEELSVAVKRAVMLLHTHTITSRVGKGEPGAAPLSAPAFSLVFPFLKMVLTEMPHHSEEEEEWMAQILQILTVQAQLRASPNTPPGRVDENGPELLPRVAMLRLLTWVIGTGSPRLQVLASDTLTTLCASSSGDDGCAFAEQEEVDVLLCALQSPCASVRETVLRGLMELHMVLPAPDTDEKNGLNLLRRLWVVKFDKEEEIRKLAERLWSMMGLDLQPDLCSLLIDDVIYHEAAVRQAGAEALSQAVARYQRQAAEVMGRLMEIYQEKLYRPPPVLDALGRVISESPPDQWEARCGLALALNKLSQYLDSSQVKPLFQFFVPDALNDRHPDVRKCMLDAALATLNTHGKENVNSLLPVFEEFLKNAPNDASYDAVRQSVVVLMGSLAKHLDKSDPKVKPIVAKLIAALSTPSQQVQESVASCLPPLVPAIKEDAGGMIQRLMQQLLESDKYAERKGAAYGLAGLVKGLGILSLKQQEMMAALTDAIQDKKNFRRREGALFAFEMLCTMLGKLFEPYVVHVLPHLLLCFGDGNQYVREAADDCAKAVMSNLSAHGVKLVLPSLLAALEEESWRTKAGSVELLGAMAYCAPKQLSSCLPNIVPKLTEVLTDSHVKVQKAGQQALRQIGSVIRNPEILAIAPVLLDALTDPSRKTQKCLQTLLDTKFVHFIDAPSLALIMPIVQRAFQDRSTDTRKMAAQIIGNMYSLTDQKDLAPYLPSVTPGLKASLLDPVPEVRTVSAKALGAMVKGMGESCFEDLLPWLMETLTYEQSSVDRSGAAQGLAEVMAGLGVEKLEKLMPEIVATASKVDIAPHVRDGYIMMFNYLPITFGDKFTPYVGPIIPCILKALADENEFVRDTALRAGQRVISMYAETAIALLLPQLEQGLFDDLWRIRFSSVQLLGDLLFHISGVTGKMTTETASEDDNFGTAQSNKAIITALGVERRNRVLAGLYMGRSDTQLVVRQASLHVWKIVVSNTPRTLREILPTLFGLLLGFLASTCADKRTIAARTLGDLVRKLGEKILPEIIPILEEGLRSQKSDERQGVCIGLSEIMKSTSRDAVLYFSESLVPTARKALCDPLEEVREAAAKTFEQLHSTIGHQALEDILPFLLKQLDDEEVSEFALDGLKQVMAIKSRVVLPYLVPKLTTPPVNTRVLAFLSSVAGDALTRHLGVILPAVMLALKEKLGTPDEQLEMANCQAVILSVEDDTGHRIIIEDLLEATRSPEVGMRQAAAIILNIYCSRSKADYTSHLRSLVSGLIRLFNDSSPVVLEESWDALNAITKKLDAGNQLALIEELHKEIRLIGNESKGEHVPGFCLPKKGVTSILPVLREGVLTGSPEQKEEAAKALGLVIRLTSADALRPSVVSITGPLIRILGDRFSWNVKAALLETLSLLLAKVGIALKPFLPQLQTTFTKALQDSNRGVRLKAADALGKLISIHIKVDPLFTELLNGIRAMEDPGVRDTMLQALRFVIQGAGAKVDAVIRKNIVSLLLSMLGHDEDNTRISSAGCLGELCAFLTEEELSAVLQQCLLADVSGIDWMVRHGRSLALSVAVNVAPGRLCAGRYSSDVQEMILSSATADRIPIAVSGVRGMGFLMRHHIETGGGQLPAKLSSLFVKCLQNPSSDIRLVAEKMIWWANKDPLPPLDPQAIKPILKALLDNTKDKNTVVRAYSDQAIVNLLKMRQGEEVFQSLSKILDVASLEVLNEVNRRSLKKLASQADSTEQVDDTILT
UniProt P23434: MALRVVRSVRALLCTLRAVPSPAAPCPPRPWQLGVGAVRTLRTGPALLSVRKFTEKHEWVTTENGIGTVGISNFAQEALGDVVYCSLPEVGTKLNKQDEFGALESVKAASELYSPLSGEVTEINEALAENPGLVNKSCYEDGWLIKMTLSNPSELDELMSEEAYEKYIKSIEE
UniProt Q9UJ14: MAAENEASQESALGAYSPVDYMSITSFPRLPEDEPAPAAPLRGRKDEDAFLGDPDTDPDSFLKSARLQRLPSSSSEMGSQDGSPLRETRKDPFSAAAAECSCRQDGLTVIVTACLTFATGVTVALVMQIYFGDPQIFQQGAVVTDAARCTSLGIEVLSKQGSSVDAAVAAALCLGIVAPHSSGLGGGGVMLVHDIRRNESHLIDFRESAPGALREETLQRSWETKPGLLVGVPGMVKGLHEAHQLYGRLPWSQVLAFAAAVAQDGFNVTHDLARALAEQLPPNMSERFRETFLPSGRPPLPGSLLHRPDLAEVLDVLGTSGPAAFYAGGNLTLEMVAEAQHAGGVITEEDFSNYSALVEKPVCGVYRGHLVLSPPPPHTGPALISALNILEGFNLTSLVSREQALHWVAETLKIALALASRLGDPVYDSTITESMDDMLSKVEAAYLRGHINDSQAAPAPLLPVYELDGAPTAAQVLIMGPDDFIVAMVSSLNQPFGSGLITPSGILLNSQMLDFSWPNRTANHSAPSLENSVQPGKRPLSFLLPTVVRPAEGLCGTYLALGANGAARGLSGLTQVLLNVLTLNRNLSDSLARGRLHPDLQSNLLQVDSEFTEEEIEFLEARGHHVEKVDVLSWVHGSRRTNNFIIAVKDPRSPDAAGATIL
UniProt Q96CU9: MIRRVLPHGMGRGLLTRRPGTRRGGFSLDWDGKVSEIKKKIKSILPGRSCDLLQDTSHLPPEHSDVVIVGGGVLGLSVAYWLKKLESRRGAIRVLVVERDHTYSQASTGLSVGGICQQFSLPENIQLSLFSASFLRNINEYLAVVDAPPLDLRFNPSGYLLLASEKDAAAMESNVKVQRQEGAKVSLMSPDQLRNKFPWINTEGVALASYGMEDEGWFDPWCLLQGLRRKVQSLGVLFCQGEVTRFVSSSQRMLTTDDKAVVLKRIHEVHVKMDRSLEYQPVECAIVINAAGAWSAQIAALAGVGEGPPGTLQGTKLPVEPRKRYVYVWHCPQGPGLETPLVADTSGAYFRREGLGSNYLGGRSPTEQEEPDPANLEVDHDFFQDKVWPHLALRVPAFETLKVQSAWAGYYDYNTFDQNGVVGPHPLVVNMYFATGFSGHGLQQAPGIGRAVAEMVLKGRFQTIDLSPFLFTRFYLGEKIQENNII

[2] = compound: CC1=C(C=C(C=C1)NC(=O)C2=CC(=CC=C2)N(C)C)NC(=O)C3=CC=C(C=C3)O
How it was run: as §1

[3] = compound: CC1=CC=C(C=C1)SC2=C3C=C(SC3=CN=C2)C(=O)N
How it was run: as §1

[4] = compound: CC1=NC(=CC=C1)C2=C(N=C(N2)C(C)(C)C)C3=CC4=NC=CN=C4C=C3
How it was run: as §1

[5] = compound: CCCCN(Cc1ccc(C(=O)NO)cc1)C(=O)Nc1ccccc1 [Nexturastat A]
How it was run: as §1

[6] = compound: CCCS(=O)(=O)Nc1ccc(F)c(C(=O)c2c[nH]c3ncc(-c4ccc(Cl)cc4)cc23)c1F [vemurafenib]
How it was run: as §1

[7] = compound: CCCS(=O)(=O)Nc1ccc(F)c(C(=O)c2c[nH]c3ncc(Cl)cc23)c1F
How it was run: as §1

[8] = compound: CCCc1cc(C)[nH]c(=O)c1CNC(=O)c1cc(-c2ccnc(N3CCN(C)CC3)c2)cc2c1cnn2C(C)C
How it was run: as §1

[9] = compound: CCN(CC)Cc1ccc2cc(COC(=O)Nc3ccc(C(=O)NO)cc3)ccc2c1 [givinostat]
How it was run: as §1

[10] = compound: CCN(CCCOc1ccc2c(Nc3cc(CC(=O)Nc4cccc(F)c4)[nH]n3)ncnc2c1)CCOP(=O)(O)O [barasertib]
How it was run: as §1

Measured: log2 fold change

GATAD2A isoform 3 (UniProt Q86YP4)
inactive: [1] 0.047 | [2] -0.225 | [3] -0.054 | [4] -0.034 | [5] 0.013 | [6] 0.065 | [7] 0.101 | [8] 0.065 | [9] 0.145 | [10] 0.112

FOXO3 (UniProt O43524)
inactive: [1] 0.247 | [2] -0.039 | [3] 0.037 | [4] 0.119 | [5] 0.024 | [6] -0.023 | [7] 0.017 | [8] -0.159 | [9] 0.012

FURIN (UniProt P09958)
inactive: [1] 0.01 | [2] 0.029 | [3] -0.076 | [4] 0.034 | [5] -0.115 | [6] 0.062 | [7] -0.085 | [8] 0.011 | [9] -0.008 | [10] -0.02

GEMIN6 (UniProt Q8WXD5)
inactive: [1] -0.049 | [2] -0.05 | [3] 0.014 | [4] 0.015 | [5] 0.134 | [6] 0.073 | [7] -0.001 | [8] 0.008 | [9] -0.088 | [10] -0.053

GALM (UniProt Q96C23)
inactive: [1] -0.05 | [2] -0.023 | [3] -0.038 | [4] -0.009 | [5] -0.075 | [6] 0.023 | [7] -0.024 | [8] 0.228 | [9] -0.006 | [10] 0.032

FTH1 (UniProt P02794)
inactive: [1] -0.086 | [2] 0.096 | [3] -0.032 | [4] 0.039 | [5] -0.091 | [6] -0.037 | [7] -0.01 | [8] -0.06 | [9] -0.201 | [10] -0.009

GAGE2A (UniProt Q6NT46)
inactive: [1] -0.012 | [2] 0.025 | [3] 0.009 | [4] 0.019 | [5] -0.052 | [6] 0.003 | [7] -0.049 | [8] -0.068 | [9] 0.024 | [10] -0.012

GGCX (UniProt P38435)
inactive: [1] 0.052 | [2] 0.038 | [3] 0.009 | [4] -0.062 | [5] 0.022 | [6] -0.018 | [7] 0.001 | [8] 0.132 | [9] 0.098 | [10] 0.037

GARS1 (UniProt P41250)
inactive: [1] -0.002 | [2] -0.008 | [3] -0.01 | [4] 0.003 | [5] -0.049 | [6] -0.021 | [7] -0.017 | [8] 0.011 | [9] -0.022 | [10] -0.005

FTL (UniProt P02792)
inactive: [1] -0.058 | [2] 0.051 | [3] -0.024 | [4] 0.021 | [5] 0.115 | [6] -0.089 | [7] -0.024 | [8] -0.083 | [9] -0.268 | [10] -0.01

GART (UniProt C9JZG2)
inactive: [1] 0.121 | [2] 0.075 | [3] 0.048 | [4] 0.032 | [5] -0.047 | [6] -0.021 | [7] 0.006 | [8] -0.216 | [9] 0.008 | [10] -0.084

GGA1 isoform 6 (UniProt Q9UJY5)
inactive: [1] 0.006 | [2] -0.035 | [3] 0.009 | [4] 0.018 | [5] -0.09 | [6] 0.052 | [7] 0.003 | [8] 0.029 | [9] 0.021 | [10] 0.023

FRRS1 (UniProt Q6ZNA5)
inactive: [1] -0.051 | [2] -0.025 | [3] 0.047 | [4] 0.013 | [5] 0.006 | [6] -0.009 | [7] 0.036 | [8] -0.034 | [9] -0.057 | [10] 0

GADD45GIP1 (UniProt Q8TAE8)
inactive: [1] -0.008 | [2] 0.038 | [3] -0.036 | [4] -0.047 | [5] 0.028 | [6] -0.083 | [7] -0.062 | [8] -0.05 | [9] 0.053 | [10] -0.024

GCN1 (UniProt Q92616)
inactive: [1] 0.075 | [2] 0.072 | [3] -0.019 | [4] -0.201 | [5] 0.501 | [6] -0.038 | [7] -0.038 | [8] 0.2 | [9] 0.231 | [10] 0.011

FUCA1 (UniProt P04066)
inactive: [1] 0.03 | [2] 0.009 | [3] 0.021 | [4] 0.092 | [5] -0.054 | [6] -0.007 | [7] 0.066 | [8] -0.016 | [9] 0 | [10] 0.012

GAPDH (UniProt P04406)
inactive: [1] 0.028 | [2] -0.019 | [3] 0.002 | [4] 0.043 | [5] -0.055 | [6] 0.05 | [7] 0.019 | [8] -0.01 | [9] 0.022 | [10] 0.018

Quoted from the results shown (2 entries):
FRRS1 (UniProt Q6ZNA5)
inactive: [1] -0.051 | [2] -0.025 | [3] 0.047 | [4] 0.013 | [5] 0.006 | [6] -0.009 | [7] 0.036 | [8] -0.034 | [9] -0.057 | [10] 0

GADD45GIP1 (UniProt Q8TAE8)
inactive: [1] -0.008 | [2] 0.038 | [3] -0.036 | [4] -0.047 | [5] 0.028 | [6] -0.083 | [7] -0.062 | [8] -0.05 | [9] 0.053 | [10] -0.024

(continued)

FRG1 (UniProt Q14331)
inactive: [1] -0.018 | [2] -0.011 | [3] -0.091 | [4] -0.214 | [5] 0.084 | [6] -0.026 | [7] -0.017 | [8] 0.021 | [9] -0.03 | [10] -0.037

GDI2 (UniProt P50395)
inactive: [1] 0.011 | [2] -0.014 | [3] -0.014 | [4] 0.014 | [5] -0.05 | [6] -0.014 | [7] 0.011 | [8] -0.015 | [9] -0.078 | [10] 0.018

GAGE12F (UniProt P0CL80)
inactive: [1] -0.005 | [2] -0.035 | [3] 0.006 | [4] 0.061 | [5] 0.036 | [6] 0.019 | [7] -0.018 | [8] -0.031 | [9] -0.076 | [10] 0.01

GABARAPL2 (UniProt P60520)
inactive: [1] -0.01 | [2] 0.023 | [3] 0.067 | [4] 0.188 | [5] -0.122 | [6] 0.026 | [7] 0.051 | [8] -0.03 | [9] 0.03 | [10] 0.007

GAN (UniProt Q9H2C0)
inactive: [1] -0.002 | [2] -0.008 | [3] -0.021 | [4] 0.035 | [5] -0.04 | [6] 0.013 | [7] 0.01 | [8] -0.001 | [9] -0.031 | [10] 0.013

GCHFR (UniProt P30047)
inactive: [1] -0.001 | [2] 0.03 | [3] 0.033 | [4] 0.004 | [5] 0.004 | [6] -0.094 | [7] -0.047 | [8] -0.049 | [9] 0.128 | [10] -0.003

GCSH (UniProt P23434)
inactive: [1] -0.024 | [2] 0.047 | [3] 0.279 | [4] 0.006 | [5] -0.06 | [6] 0.079 | [7] -0.021 | [8] -0.139 | [9] 0 | [10] -0.095

GALNT1 (UniProt Q10472)
inactive: [1] -0.004 | [2] 0 | [3] 0.03 | [4] 0.067 | [5] 0.001 | [6] 0.02 | [7] -0.021 | [8] -0.055 | [9] 0.003 | [10] 0.007

GGT7 (UniProt Q9UJ14)
inactive: [1] -0.125 | [2] 0 | [3] 0.07 | [4] -0.008 | [5] 0.032 | [6] 0.112 | [7] -0.011 | [8] 0.033 | [9] 0.019 | [10] 0.061

FPGT (UniProt O14772)
inactive: [1] 0.035 | [2] 0.032 | [3] 0.033 | [4] 0.042 | [5] -0.041 | [6] 0.053 | [7] 0.02 | [8] 0.058 | [9] -0.001 | [10] 0.009

FOXRED1 (UniProt Q96CU9)
inactive: [1] -0.04 | [2] 0.038 | [3] 0.012 | [4] 0.067 | [5] -0.017 | [6] 0.009 | [7] 0.028 | [8] -0.013 | [9] -0.033 | [10] 0.025

GHITM (UniProt Q9H3K2)
inactive: [1] 0.001 | [2] 0.043 | [3] 0.01 | [4] 0.044 | [5] -0.012 | [6] 0.009 | [7] 0.027 | [8] -0.053 | [9] 0.023 | [10] -0.015

GGA3 (UniProt Q9NZ52)
inactive: [1] -0.045 | [2] 0.006 | [3] -0.007 | [4] 0.007 | [5] -0.149 | [6] 0.072 | [7] 0.027 | [8] -0.001 | [9] 0.025 | [10] 0.035
